PubChem BioAssay AID652272, Drosophila RNAi Screening Center | 2013
Screen: 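Genome-wide knock-down search for components of Hedgehog signalling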 (primary screen). System: Drosophila clone 8 (Cl8) cells. Reagents: long dsRNA against Drosophila genes. Detection: 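Firefly light from a Hedgehog-responsive ptc promoter reporter and Renilla reference light, both read on a plate reader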. Reading the numbers: firefly Hh reporter signal: higher = more ptc reporter light; Renilla reference signal: higher = more Renilla control light. Rule for the call: 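Hit when the z-score averaged over two replicates is under -2 or over +3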. Calls: active = hit: reporter lowered or raised; inactive = not a hit.
The deposit covers about 21,000 reagents; shown is an unselected part of those with a known target gene and a result. Over the whole deposit, 503 (2.4%) are marked active. 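Raw plate light values, not normalised; calls rest on replicate z-scores that were not deposited; hits include reporter decreases as well as increases.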 Unmarked entries are inactive. The numbers tell different reagents against one gene apart. Reagent sequences are not shown. The record does not give: the amount of reagent, the time to read-out.

The opening 3 records as a preview:
| target gene | reagent | firefly Hh reporter signal, replicate 1 | firefly Hh reporter signal, replicate 2 | firefly Hh reporter signal, replicate 3 | Renilla reference signal, replicate 1 | Renilla reference signal, replicate 2 |
| --- | --- | --- | --- | --- | --- | --- |
| CG5199 | 1 | 79660 | 1.05e5 | – | 3257 | 3043 |
| CG13733 | 1 | 1.15e5 | – | – | 3778 | 3413 |
| CG10154 | 1 | 24345 | 30760 | 56106 | 2592 | 3446 |

Main list, from the start:
| target gene | reagent | firefly Hh reporter signal, replicate 1 | firefly Hh reporter signal, replicate 2 | firefly Hh reporter signal, replicate 3 | Renilla reference signal, replicate 1 | Renilla reference signal, replicate 2 |
| --- | --- | --- | --- | --- | --- | --- |
| CG5199 | 1 | 79660 | 1.05e5 | – | 3257 | 3043 |
| CG13733 | 1 | 1.15e5 | – | – | 3778 | 3413 |
| CG10154 | 1 | 24345 | 30760 | 56106 | 2592 | 3446 |
| Hen1 (Hen1 methyltransferase) | 1 | 91522 | 83863 | – | 3837 | 3270 |
| Hen1 (Hen1 methyltransferase) | 2 | 74720 | 42314 | – | 2000 | 3621 |
| CG32833 | 1 | 98912 | 49403 | – | 3877 | 2026 |
| Bacc (Bacchus) | 1 | 1.17e5 | 1.15e5 | – | 2785 | 3024 |
| a5 (antennal protein 5) | 1 | 82949 | 76010 | – | 2167 | 1944 |
| slx1 (nuclease slx1) | 1 | 78384 | 86940 | – | 3078 | 2442 |
| Pfdn2 (Prefoldin 2) | 1 | 50524 | 33786 | 54361 | 3015 | 3659 |
| rnh1 (ribonuclease H1) | 1 | 73813 | 33552 | – | 2184 | 3362 |
| Art8 (Arginine methyltransferase 8) | 1 | 1.23e5 | 60352 | – | 2829 | 5376 |
| prage | 1 | 54784 | 1.49e5 | – | 1147 | 8548 |
| prage | 2 | 1.17e5 | 49148 | – | 2907 | 1704 |
| prage | 3 | 85697 | 1.61e5 | – | 3383 | 6999 |
| prage | 4 | 1.01e5 | 2.52e5 | – | 3147 | 10272 |
| Cpr11A (Cuticular protein 11A) | 1 | 88042 | 2.49e5 | – | 2694 | 9473 |
| CG11670 | 1 | 87552 | 79827 | – | 2769 | 2240 |
| CG5568 | 1 | 1.45e5 | 7.48e5 | 1.20e5 | 6632 | 44322 |
| CG9132 | 1 | 75047 (active) | 84027 | – | 1114 | 1906 |
| CG32163 | 1 | 5.98e5 | 3.79e5 | 81031 | 3568 | 8609 |
| CG18731 | 1 | 1.01e5 | 1.20e5 | – | 3344 | 3113 |
| CG42656 | 1 | 2.53e5 | – | – | 5536 | – |
| Naglu (N-acetyl-alpha-glucosaminidase) | 1 | 91264 | 81529 | – | 3580 | 2165 |
| CG17982 | 1 | 65925 | 1.89e5 | – | 2339 | 6727 |
| Septin4 (Septin 4) | 1 | 99530 | 82112 | – | 1731 | 2134 |
| CG12470 | 1 | 79003 | 1.88e5 | – | 2864 | 6886 |
| CG18301 | 1 | 91216 | 48432 | – | 2407 | 4432 |
| Adck1 (aarF domain containing kinase 1) | 1 | 1.01e5 | 56938 | – | 3939 | 2136 |
| CG32708 | 1 | 1.49e5 | 3.39e5 | – | 5322 | 11672 |
| Galphas (G protein alpha subunit s) | 1 | 74297 (active) | 58789 | – | 4604 | 3559 |
| Prat (Phosphoribosylamidotransferase) | 1 | 1.29e5 | 1.30e5 | – | 3965 | 3766 |
| CG42703 | 1 | 1.21e5 | 3.35e5 | – | 2896 | 15925 |
| Alg14 (ALG14, UDP-N-acetylglucosaminyltransferase subunit) | 1 | 62813 | 1.98e5 | – | 1287 | 7163 |
| path (pathetic) | 1 | 22989 | 55207 | 53704 | 5329 | 3975 |
| obst-J (obstructor-J) | 1 | 75046 | 1.37e5 | – | 1728 | 3557 |
| CG12744 | 1 | 88018 | 56304 | – | 3802 | 2336 |
| SCOT (Succinyl-CoA:3-ketoacid CoA transferase) | 1 | 94554 | 79440 | – | 4348 | 3212 |
| mbf1 (multiprotein bridging factor 1) | 1 | 1.50e5 | 1.13e5 | – | 5500 | 3883 |
| CG7730 | 1 | 1.11e5 | 95752 | – | 4632 | 3511 |
| CR17567 (retired record) | 1 | 1.13e5 | 69609 | – | 2873 | 6215 |
| lncRNA:CR43242 (long non-coding RNA:CR43242) | 1 | 75456 | 51282 | – | 2584 | 4634 |
| CG15572 | 1 | 64011 | 1.31e5 | – | 2211 | 6844 |
| Tsp42Eg (Tetraspanin 42Eg) | 1 | 1.19e5 | 93880 | – | 5130 | 3817 |
| CG42582 (retired record) | 1 | 5.54e5 | 2.90e5 | – | 31008 | 6365 |
| Ttc1 (Tetratricopeptide repeat domain 1) | 1 | 1.65e5 | 1.20e5 | – | 4903 | 2836 |
| nac (neuronally altered carbohydrate) | 1 | 75348 | 1.16e5 | – | 2640 | 3195 |
| CG5084 | 1 | 93965 | 67011 | – | 2640 | 4924 |
| CG33278 | 1 | 38922 | 73091 | – | 5633 | 5889 |
| Dna2 (DNA replication helicase/nuclease 2) | 1 | 60250 | 79944 | – | 1429 | 1782 |
| CG6602 | 1 | 47609 | 49060 | – | 4441 | 4416 |
| Arv1 (ACAT-related protein required for viability 1) | 1 | 3.54e5 | – | – | 7258 | – |
| Nepl10 (Neprilysin-like 10) | 1 | 99627 | 68909 | – | 2520 | 5546 |
| CG32137 | 1 | 54859 | 41816 | 30864 | 5328 | 1296 |
| CG32137 | 2 | 67245 | 56326 | 30896 | 4985 | 1301 |
| CG33969 | 1 | 75555 | 73961 | – | 2509 | 1676 |
| CG3088 | 1 | 1.20e5 | 73271 | – | 4616 | 3187 |
| Cip4 (Cdc42-interacting protein 4) | 1 | 1.47e5 | 3.12e5 | – | 2939 | 12044 |
| Cip4 (Cdc42-interacting protein 4) | 2 | 83932 | 83700 | – | 3802 | 3040 |
| CG42544 | 1 | 1.42e5 | – | – | 3440 | – |
| Dci (Dodecenoyl-CoA delta-isomerase) | 1 | 5.65e5 | 1.01e5 | – | 4997 | 4997 |
| Nep6 (Neprilysin 6) | 1 | 42148 | 46117 | – | 1472 | 1458 |
| hng3 (hinge3) | 1 | 85824 | 45380 | – | 3428 | 3862 |
| CG17715 | 1 | 67712 | 84628 | – | 2313 | 1748 |
| Rab14 | 1 | 1.11e5 | 57089 | – | 4646 | 3136 |
| BG642163 | 1 | 83817 | 65223 | – | 2281 | 6477 |
| BG642163 | 2 | 1.32e5 | 66417 | – | 3260 | 5993 |
| RpS17 (Ribosomal protein S17) | 1 | 30496 (active) | 11523 | 28664 | 4600 | 3552 |
| Gapvd1 (GTPase activating protein and VPS9 domains 1) | 1 | 50103 | 1.70e5 | – | 2045 | 7458 |
| rib (ribbon) | 1 | 89976 | 58230 | – | 5478 | 2681 |
| Rpn11 (Regulatory particle non-ATPase 11) | 1 | 34736 (active) | 19238 | – | 1644 | 3291 |
| CG1394 | 1 | 84763 | 52806 | – | 4849 | 1448 |
| CG30110 | 1 | 99068 | 2.17e5 | – | 2587 | 9099 |
